{
  "source": "PubChem BioAssay AID977622",
  "about": "(Broad Institute, 2014)",
  "note": "In all, about 1,900 compounds went through this assay and fewer than 10 were called active. Inconclusive results, whose numbers are uncertain, are shown.",
  "data": [
    {"assay": "growth inhibition of wild-type GFP E. coli, dose response, h38 mutant RFP, cherry-pick (AID 977622)", "conditions": "E. coli WT ribosome GFP fluorescence, mixed culture, 24 h; at 50 µM (top of the series)", "values": [
      {"smiles": "CCCCn1c(NS(=O)(=O)c2ccc(C)cc2)c(C(=O)OCC)c2nc3ccccc3nc21", "activity change, negative = inhibition": "inconclusive: -19.3"},
      {"smiles": "O=C(c1ccc(Cl)cc1)C1CCCN(Cc2cccc3cnccc23)C1", "note": "(stereo unspecified)", "activity change, negative = inhibition": "inconclusive: 5.83"},
      {"smiles": "CCOC(=O)C12C(=O)OCC1C2c1ccccc1", "note": "(stereo unspecified)", "activity change, negative = inhibition": "inconclusive: 27.2"},
      {"smiles": "COc1cc2c(cc1OC)CN(c1ccc([N+](=O)[O-])c(C(F)(F)F)c1)CC2", "activity change, negative = inhibition": "inconclusive: 1.83"},
      {"smiles": "Cc1c(-c2cccc(Cl)c2)nc2ccccc2c1C(=O)N1CCC2(CC1)OCCO2", "activity change, negative = inhibition": "inconclusive: -8.02"},
      {"smiles": "COc1cc(O)c2c(c1)/C=C/C[C@H](O)[C@H](O)C(=O)CCC[C@H](C)OC2=O", "activity change, negative = inhibition": "inconclusive: -14.9"}
    ]}
  ]
}
